These results are taken from PubChem BioAssay AID1347426 (Functional Genomics Laboratory (NCATS/FGL), 2020).

About 1,400 (4.5%) of roughly 31,000 sequences were called active.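 Rule for the calls: active = median seed-adjusted z-score above 1 or below -1; inactive = the rest.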 The list shows a part of the results.

The nature of the experiment: Novel Modifiers of Survival Motor Neuron (SMN) Protein: Gene Identification via Genome-wide siRNA Screen.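 Note: luminescence tracks full-length SMN protein made from the SMN2 reporter.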 As to conditions: HEK293T SMN2-luciferase reporter, siRNA knockdown, 72 h; actives lie on both sides. The method in brief:
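Each of three siRNAs per gene is reverse-transfected (1 pmol) into reporter HEK293T cells whose luciferase output tracks SMN protein level. After 72 h culture, ONE-Glo luminescence is control-normalized, log10-transformed and MAD-standardized; Common Seed Analysis deprioritizes seed-driven hits.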
A general note: A reporter such as luciferase makes a cellular process visible.
As to CCACGUUGAAAAUAAUCAATT against PDE5A, the median seed-adjusted z-score is inactive: 0. Take GUAUUCCAGCGAAUCCGAUTT against PAK7: the median seed-adjusted z-score was inactive: -0.202.

With GAAGAAUCUUUUCAGCAAATT against SAFB, the median seed-adjusted z-score is inactive: -0.954. The same measure for GCCUCCUUCUUUGACCGGATT against NACC1: active: 1.59; for GAAAACCCACUAUCCUGAUTT against ALX3: inactive: -0.0707. The same measure for GCCUUACCAUAGGUCAACATT against TRIM59: inactive: 0.941; for CAAUGAUGAUCAUUACUCATT against MBOAT2: inactive: -0.282. With CGAUUACUCCAAACUUCCATT against PAK3, the median seed-adjusted z-score was inactive: 0. In the case of CCUUUAGCCGAAGCACUAATT against ZNF391 it was inactive: 0.056; in that of GCCUGGAUGAAUUCGAUUATT against UBE4A, inactive: -0.285; in that of GAAGUUGACUCUACUUUGATT against SDHB, inactive: 0.0872. In the case of CCUGAGCACAUAUAACUGUTT against ART4 it was inactive: -0.0808. The same measure for CAGCUAUUACUAUGGUUAATT against PTBP2: inactive: 0.138. As for CUACUAUCCUGGUUCUGGATT against PROS1, the median seed-adjusted z-score was inactive: 0.436.

In the case of GGCUUUAGGUGAGCCUUCATT against OGFOD2, the median seed-adjusted z-score was inactive: 0.493. With UCAUUGUCCUUGCCUCUUUTT against PAQR7, the median seed-adjusted z-score was inactive: -0.0406. The same measure for CCAAGUCUGUGAAUGUAAATT against SORD: inactive: 0.17; for CCUCGUCAUUAAAGACAAATT against FBXO18: inactive: -0.417. AGACCUCGAUUUCACAGUATT against PRMT8: the median seed-adjusted z-score was inactive: 0. As for GGAUUCUUAUGCUCGCUAUTT against RGS9, the median seed-adjusted z-score is inactive: 0.0665.

Turning to GCAUGAGAGCGACAUCUCATT against SLC12A5, the median seed-adjusted z-score was inactive: -0.22.

Turning to GGUGAAAAGUGGGAGUUAATT against TARS, the median seed-adjusted z-score is inactive: 0.146. In the case of CGAUAUGAUUGGCCAGAGATT against GIPC3 it was inactive: -0.27. On to GAAUCAAGAAGACCCAGGATT against LASP1, for which the median seed-adjusted z-score was inactive: -0.286.

As to GGAACUAACUGAACUAGCUTT against ACSL3, the median seed-adjusted z-score is inactive: 0.

GUACAAAGCCUGUAUCUCUTT against KRT6A: the median seed-adjusted z-score is inactive: -0.146. In the case of GCAGAUGCCGUUAAACAAATT against CAMK4 it was inactive: 0; in that of GACCCUCGAUUACUAUUCATT against OMA1, inactive: 0; in that of GGAGGUGGACACUUCAGAATT against NUCB1, inactive: 0.232.

Turning to ACACUGACAUGGACGGGAATT against ADAMTS8, the median seed-adjusted z-score was inactive: 0.115.

In the case of CAGUUUCGAUGGAGUGAAATT against CMAS, the median seed-adjusted z-score is inactive: -0.491. In the case of CCUCCUACUUGCCUAUCUATT against FOXH1 it was inactive: 0; in that of CCAACACUUGGAGAUUUUUTT against ASCL2, inactive: -0.249; in that of GGAGUUACCUGAGCCCAGATT against CTSW, inactive: -0.342. The same measure for GGCCCAUAAGUACCACUGATT against HBE1: inactive: -0.425; for AGCUCAAUCCGGACUGUGATT against BGLAP: inactive: -0.488; for GGUACAAUCUAGCGACAAATT against SUCLG2: inactive: -0.619.

GGCUAACAGUGAUGCUAUUTT against GHR: the median seed-adjusted z-score is inactive: 0.273. In the case of GAGCAGGAUUGGUUUAAAATT against SNAPC4 it was inactive: -0.62; in that of AGUUGUUUUUGGACCACAATT against GP5, inactive: -0.286. Consider GCUGGUUUCGUGUACAUCUTT against ALG3, for which the median seed-adjusted z-score was inactive: -0.446. As to GGACUUGAACAGUAUGCUATT against CCT8, the median seed-adjusted z-score is inactive: -0.161. In the case of CUCAAGAAAAUGCAUCAGATT against EBPL it was inactive: -0.113; in that of CUACAGAUCUCCAAUGAAATT against DAXX, inactive: 0.349. For GGAGUGAUGAUAACGAGGATT against LATS1, the median seed-adjusted z-score was inactive: 0. The same measure for GCAGAACUGACAGUCGAUATT against DMTF1: inactive: 0.396; for GCCCAACAGGUACCGCUAUTT against NAGLU: inactive: -0.526. As for GAUUCCGUCUAAUCCUAGATT against C5, the median seed-adjusted z-score was inactive: 0.153.

Take GACCCAGACUGCAACAAGATT against CELSR2: the median seed-adjusted z-score was inactive: -0.493. In the case of CAAGGAAUAUUGACGUAUATT against DDX53 it was inactive: -0.136; in that of GUCUGUCAAUGUACCUUCUTT against 3-Mar, inactive: 0.069; in that of CAACUUGGACAAGACCUUATT against GYS1, inactive: 0.874.

As to CCGCUGAUGUUAUUCGCAUTT against PNMA1, the median seed-adjusted z-score was inactive: 0.2. In the case of GGCGGUGAAUGACAGCUAUTT against GRIN2A, the median seed-adjusted z-score is inactive: 0.025. The same measure for UCCCGAUUCUGAAUAUUCATT against SEPX1: inactive: -0.0545.

Consider CAACAGCUCUGUACUUACATT against ZHX1, for which the median seed-adjusted z-score is inactive: -0.566. The same measure for GCCUUUCAGAAUCCGCAGATT against UQCRC2: inactive: -0.848; for CACUAACAUUUUUCGGAAUTT against ACP6: inactive: -0.631. As to GUCAUGGUGUGGAACCAGATT against ADAMTSL2, the median seed-adjusted z-score is inactive: 0.806.

CGAGGACACCCUUAGCAGUTT against ADRA1B: the median seed-adjusted z-score is inactive: -0.472. With GAAAAUUACCACAAGCAAATT against ZNF138, the median seed-adjusted z-score was inactive: -0.0937. As for CACAUGUUUGACUCAAAUUTT against PLGLB2, the median seed-adjusted z-score was inactive: 0.234. As to ACACUGACGUGUCUAUGGATT against KCNK9, the median seed-adjusted z-score is inactive: 0.735. CUACGUUGAUAUUAUCAAATT against SULT1C3: the median seed-adjusted z-score is inactive: -0.731. The same measure for UGGAAUACAUGGAUCAGAATT against HEPACAM: inactive: -0.063; for GGGUGAUAAAGAGAGCGGATT against ZNF646: inactive: 0. With UCUCUCAGCUGAUUAAUUUTT against ARL15, the median seed-adjusted z-score is inactive: -0.944. In the case of CCAUCUCAGAGAGACCUCUTT against ZNF778 it was inactive: 0.0459; in that of GGAGUUAUUCAAAACGAUATT against QRSL1, inactive: -0.539. GCACCUUACUAUCUCAUGATT against SCYL3: the median seed-adjusted z-score is inactive: 0.665. In the case of GACGCAACCUUAUUCGCAATT against FBXO27 it was inactive: -0.286; in that of CCCAGUUCCUGCUAUCUCATT against POU2F3, active: -1.53. Regarding CCAGACAGGAGGAACCAUATT against HDAC11, the median seed-adjusted z-score was inactive: 0.259.

Take CACUAGGUCUGGUAAAGGATT against ZFYVE1: the median seed-adjusted z-score is inactive: -0.546.

As for GGAUGUUCCCGUCGCCUUATT against BARHL1, the median seed-adjusted z-score is inactive: 0.397. With GCACAGGACAGACAGGCUATT against SRC, the median seed-adjusted z-score was inactive: -0.0246. Turning to GAAUAGCAUGGAUGAAUGATT against SLC18A1, the median seed-adjusted z-score is inactive: 0.0986. Turning to CAAUUUAAUCGUUUACCUUTT against MAP2K1IP1, the median seed-adjusted z-score was inactive: 0.333. Turning to GGGUUGGAGUAAUUGGUUUTT against GNL3, the median seed-adjusted z-score is inactive: 0.572. The same measure for GAGCCUCUCCUAUACCAAATT against SLC25A39: inactive: -0.111; for AGAGACAAAAUAAAUGGAATT against HLA-A: inactive: 0.189; for CGUUAUUGCCUGUUUGGAATT against GUCY1A2: inactive: -0.186. Consider AGAGCACAGCGGGCAUAUATT against GSTZ1, for which the median seed-adjusted z-score was inactive: -0.144. With CGCCUAUACUUCUUCAUCUTT against INHBB, the median seed-adjusted z-score is inactive: -0.522. On to CAAUGUAUCUUGUGAUUUUTT against AGPAT5, for which the median seed-adjusted z-score is inactive: 0.571. For GGAAAACCCUGGAUAGUCATT against TIAM1, the median seed-adjusted z-score is inactive: 0.13. In the case of AGAGCGAGCCUUUGCUGAUTT against DAD1 it was inactive: -0.45; in that of GGAAGUCUCUAAUCUCAAATT against ATP10B, inactive: 0.51. UGAGCAACUUGGACAGCAATT against S100A4: the median seed-adjusted z-score is inactive: 0.567.

For GUACUGCGAUGAAACUUCATT against ROR1, the median seed-adjusted z-score is inactive: -0.0044. In the case of GGAUUCCAGUCCAACAACATT against XPNPEP2 it was inactive: -0.158.

Take CAAUUUCCCACAUAACCAATT against TSNAX: the median seed-adjusted z-score was inactive: 0.514. CAAGAGAACCAAGCAGAAATT against CXCR5: the median seed-adjusted z-score was inactive: 0.0406.

Regarding GGCUGUUAAUGGGACAGAUTT against MPZL2, the median seed-adjusted z-score was inactive: -0.0172. Consider CGGCAAUUGUUGACGUGAATT against TXNDC11, for which the median seed-adjusted z-score was inactive: 0.642. The same measure for CUAUGACGACUUAUCCAAATT against ATP5A1: inactive: -0.974. The same measure for CACUAUUACUGCUACGUGATT against USP36: inactive: -0.147; for GGUACAACAAAAUACUGCATT against CNOT4: inactive: -0.116; for AGAUUUUCGUGGCAUCAGGTT against CRLF2: inactive: 0.218. The same measure for CCACAACUGUACACCUGAATT against IMPDH2: inactive: 0.119. For the sequence CGUAAGCCUUUGGUCAUAATT against HSPD1, the median seed-adjusted z-score was inactive: -0.146. In the case of CUGACAAACCGAAAGUAGATT against PCGF5 it was inactive: 0.25; in that of GUGAAGAAGUUGCUUAUUATT against MAST1, inactive: -0.0897; in that of UGGCCAACGUUGUCAUGAATT against RHBDL1, inactive: -0.365. In the case of CGAGUGCUCUUGUACGUGATT against GRHL2, the median seed-adjusted z-score is inactive: 0.0233. The same measure for GGACUACAGCUAUUCACUUTT against NDST2: inactive: -0.0582. The same measure for CUCUCACUCUCAUAGGAGATT against TRA2A: inactive: -0.187. As for GCUCAUAUGCUGUUGAUUUTT against TMPRSS11E, the median seed-adjusted z-score is inactive: 0.0512.
